One experiment addresses T1, GST-ATP5O (mouse) (UniProt Q9DB20).
T1 sequence: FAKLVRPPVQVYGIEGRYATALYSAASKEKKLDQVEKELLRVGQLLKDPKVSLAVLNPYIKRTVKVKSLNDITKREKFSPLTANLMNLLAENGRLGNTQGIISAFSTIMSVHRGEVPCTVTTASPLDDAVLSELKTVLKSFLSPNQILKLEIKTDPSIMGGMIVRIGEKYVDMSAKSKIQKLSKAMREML
Briefly: pull-down; GST-pulldown; GST-ATP5O (purified from E.coli) as bait, his-tagged HDAC2-TagRFP (purified from sf9 cells) as prey; read by SDS-PAGE; both purified.

Chains of the proteins cited; added tags and fusions are not shown.
UniProt P70288: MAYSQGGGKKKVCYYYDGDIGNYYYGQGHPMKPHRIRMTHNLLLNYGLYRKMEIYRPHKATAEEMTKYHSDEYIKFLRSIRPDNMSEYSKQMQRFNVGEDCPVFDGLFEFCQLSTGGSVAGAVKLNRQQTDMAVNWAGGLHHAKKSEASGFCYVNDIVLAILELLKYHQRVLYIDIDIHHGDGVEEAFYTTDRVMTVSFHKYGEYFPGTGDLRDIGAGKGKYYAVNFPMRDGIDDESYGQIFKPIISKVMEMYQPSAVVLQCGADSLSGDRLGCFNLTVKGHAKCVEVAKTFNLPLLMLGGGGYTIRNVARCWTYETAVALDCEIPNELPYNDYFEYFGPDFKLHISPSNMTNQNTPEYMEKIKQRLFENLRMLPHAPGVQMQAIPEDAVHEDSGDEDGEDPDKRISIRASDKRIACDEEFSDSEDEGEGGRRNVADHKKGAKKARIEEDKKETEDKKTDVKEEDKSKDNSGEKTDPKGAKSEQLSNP

The target of experiment [1] is Histone deacetylase 2 (HDAC2) (UniProt P70288). Briefly: co-IP; coimmunoprecipitation and western blot; the text shown names neither the source of the lysate nor the precipitating antibody (methods in the supplementary information). On the technique in general: Immunoblotting shows a protein as a band on a membrane.

These are yes or no findings as the source states them, for the method shown. For some assays here: Binding seen in cells or lysates may run through a third protein. Some entries that bind do so weakly or less than the wild type. For some assays here: Tags and fused reporters may be left off the sequences shown.

Turning to “his-tagged HDAC2-TagRFP (from UniProt P70288 1-488) (enzyme)”, in the experiment with GST-ATP5O (mouse), the binding entry is given as “binds”.

B1: ATP synthase, H+ transporting, mitochondrial F1 complex, O subunit (ATP5O) (protein, UniProt Q9DB20 24-213)
chain: FAKLVRPPVQVYGIEGRYATALYSAASKEKKLDQVEKELLRVGQLLKDPKVSLAVLNPYIKRTVKVKSLNDITKREKFSPLTANLMNLLAENGRLGNTQGIISAFSTIMSVHRGEVPCTVTTASPLDDAVLSELKTVLKSFLSPNQILKLEIKTDPSIMGGMIVRIGEKYVDMSAKSKIQKLSKAMREML
Turning to B1, the binding result in experiment [1] is reported as “binds”.

These data come from PMC11030818.
